In the supplement of paper PMC10849652:
The list shows a part of the results.

Protein sequences, listed by entry. Tags and fused reporters are not part of them. Lines headed by an entry give the natural chain unless they say otherwise; changes in a name come on top.
UniProt O15169, whole entry, looked up: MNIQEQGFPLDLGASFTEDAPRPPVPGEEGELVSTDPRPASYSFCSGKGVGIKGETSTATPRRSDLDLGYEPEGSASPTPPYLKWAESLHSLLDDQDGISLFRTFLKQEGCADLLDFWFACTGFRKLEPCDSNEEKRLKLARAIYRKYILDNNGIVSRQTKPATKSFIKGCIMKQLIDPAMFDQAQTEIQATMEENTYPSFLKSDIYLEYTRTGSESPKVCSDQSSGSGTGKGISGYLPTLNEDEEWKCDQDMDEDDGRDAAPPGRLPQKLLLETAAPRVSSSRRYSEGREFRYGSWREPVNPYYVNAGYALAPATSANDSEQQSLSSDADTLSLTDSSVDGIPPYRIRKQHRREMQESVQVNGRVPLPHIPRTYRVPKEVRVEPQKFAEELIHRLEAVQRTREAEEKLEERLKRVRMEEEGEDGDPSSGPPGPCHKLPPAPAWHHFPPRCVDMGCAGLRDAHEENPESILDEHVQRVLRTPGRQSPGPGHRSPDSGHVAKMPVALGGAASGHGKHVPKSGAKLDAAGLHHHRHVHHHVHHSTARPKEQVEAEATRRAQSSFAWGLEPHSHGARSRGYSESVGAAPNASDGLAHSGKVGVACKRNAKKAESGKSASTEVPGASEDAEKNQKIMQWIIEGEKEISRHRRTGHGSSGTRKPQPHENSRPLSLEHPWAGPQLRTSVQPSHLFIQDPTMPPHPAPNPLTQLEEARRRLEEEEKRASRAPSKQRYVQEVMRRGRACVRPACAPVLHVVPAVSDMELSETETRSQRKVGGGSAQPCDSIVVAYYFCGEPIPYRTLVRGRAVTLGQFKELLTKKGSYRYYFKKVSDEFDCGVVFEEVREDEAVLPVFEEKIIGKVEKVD
UniProt O75882: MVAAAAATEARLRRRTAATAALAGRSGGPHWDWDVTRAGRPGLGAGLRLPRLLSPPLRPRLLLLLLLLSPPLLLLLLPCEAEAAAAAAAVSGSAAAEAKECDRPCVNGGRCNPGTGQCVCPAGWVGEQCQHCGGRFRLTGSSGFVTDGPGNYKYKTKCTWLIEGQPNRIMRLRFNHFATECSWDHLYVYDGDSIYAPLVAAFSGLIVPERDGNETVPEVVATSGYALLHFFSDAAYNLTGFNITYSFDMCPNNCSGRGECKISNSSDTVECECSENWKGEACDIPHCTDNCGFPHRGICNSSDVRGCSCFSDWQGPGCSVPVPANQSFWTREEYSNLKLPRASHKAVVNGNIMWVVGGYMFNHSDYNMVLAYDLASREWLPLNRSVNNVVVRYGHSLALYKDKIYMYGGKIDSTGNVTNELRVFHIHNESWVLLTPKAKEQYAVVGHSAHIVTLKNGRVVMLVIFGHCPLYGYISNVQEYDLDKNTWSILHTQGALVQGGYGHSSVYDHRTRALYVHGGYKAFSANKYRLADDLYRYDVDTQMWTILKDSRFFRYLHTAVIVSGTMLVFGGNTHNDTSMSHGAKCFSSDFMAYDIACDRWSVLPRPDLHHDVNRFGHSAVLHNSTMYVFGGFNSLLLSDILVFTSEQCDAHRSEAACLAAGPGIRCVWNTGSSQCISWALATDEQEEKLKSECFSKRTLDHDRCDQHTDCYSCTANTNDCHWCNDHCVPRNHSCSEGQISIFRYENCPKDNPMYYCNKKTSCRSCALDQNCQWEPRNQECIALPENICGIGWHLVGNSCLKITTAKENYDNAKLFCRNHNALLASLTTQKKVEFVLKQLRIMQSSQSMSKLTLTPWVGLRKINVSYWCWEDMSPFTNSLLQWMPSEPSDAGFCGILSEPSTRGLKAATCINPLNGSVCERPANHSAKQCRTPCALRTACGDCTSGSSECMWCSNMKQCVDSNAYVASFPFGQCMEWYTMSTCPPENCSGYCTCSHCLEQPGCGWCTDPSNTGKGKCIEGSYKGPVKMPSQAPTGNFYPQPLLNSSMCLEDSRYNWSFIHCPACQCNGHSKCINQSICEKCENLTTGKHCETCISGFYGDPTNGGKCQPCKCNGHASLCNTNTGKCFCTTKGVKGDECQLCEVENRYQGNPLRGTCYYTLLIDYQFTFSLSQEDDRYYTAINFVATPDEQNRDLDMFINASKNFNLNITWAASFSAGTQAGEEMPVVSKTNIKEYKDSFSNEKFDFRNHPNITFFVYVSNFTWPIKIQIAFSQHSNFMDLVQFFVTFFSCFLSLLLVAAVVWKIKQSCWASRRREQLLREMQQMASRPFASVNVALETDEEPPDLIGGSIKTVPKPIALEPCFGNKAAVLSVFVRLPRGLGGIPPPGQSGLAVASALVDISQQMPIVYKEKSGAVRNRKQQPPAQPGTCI
UniProt O75348, whole entry, looked up: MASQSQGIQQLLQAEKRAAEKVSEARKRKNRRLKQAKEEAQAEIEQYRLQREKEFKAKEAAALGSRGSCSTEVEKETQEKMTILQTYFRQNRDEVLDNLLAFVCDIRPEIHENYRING
UniProt L0R819, whole entry, looked up: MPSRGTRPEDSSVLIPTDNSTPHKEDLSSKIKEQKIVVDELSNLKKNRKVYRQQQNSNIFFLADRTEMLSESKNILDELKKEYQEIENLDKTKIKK
UniProt Q9NQ11: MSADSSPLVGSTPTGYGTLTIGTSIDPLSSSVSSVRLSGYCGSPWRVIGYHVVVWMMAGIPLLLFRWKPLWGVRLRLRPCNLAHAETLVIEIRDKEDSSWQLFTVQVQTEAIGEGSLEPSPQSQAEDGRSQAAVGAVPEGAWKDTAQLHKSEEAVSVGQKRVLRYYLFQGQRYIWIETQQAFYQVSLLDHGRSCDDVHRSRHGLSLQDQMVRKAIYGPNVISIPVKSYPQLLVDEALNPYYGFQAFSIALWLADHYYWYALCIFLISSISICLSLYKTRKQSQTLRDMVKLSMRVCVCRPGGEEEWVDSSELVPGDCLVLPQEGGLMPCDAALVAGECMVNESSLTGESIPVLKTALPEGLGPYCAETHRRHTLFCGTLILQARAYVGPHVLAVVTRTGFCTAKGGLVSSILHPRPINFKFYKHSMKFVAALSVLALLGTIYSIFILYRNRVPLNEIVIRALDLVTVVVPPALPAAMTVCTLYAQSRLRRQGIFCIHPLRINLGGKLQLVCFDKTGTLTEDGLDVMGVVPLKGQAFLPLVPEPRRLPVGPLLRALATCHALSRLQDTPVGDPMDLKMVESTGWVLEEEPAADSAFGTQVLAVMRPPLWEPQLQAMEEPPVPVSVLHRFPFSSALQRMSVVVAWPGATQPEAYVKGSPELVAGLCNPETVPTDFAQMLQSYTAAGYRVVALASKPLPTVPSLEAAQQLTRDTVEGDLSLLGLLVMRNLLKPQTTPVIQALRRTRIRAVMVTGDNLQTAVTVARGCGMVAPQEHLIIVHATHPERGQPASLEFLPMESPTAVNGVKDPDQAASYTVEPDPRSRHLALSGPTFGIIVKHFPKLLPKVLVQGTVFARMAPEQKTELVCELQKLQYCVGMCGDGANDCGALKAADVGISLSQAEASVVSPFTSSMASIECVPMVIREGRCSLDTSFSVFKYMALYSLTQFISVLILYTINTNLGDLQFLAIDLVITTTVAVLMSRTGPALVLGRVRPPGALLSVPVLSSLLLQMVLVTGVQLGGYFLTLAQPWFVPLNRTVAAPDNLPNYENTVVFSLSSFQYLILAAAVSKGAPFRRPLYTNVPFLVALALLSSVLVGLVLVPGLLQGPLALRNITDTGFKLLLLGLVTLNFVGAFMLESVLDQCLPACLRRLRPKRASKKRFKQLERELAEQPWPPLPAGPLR
UniProt Q5U623: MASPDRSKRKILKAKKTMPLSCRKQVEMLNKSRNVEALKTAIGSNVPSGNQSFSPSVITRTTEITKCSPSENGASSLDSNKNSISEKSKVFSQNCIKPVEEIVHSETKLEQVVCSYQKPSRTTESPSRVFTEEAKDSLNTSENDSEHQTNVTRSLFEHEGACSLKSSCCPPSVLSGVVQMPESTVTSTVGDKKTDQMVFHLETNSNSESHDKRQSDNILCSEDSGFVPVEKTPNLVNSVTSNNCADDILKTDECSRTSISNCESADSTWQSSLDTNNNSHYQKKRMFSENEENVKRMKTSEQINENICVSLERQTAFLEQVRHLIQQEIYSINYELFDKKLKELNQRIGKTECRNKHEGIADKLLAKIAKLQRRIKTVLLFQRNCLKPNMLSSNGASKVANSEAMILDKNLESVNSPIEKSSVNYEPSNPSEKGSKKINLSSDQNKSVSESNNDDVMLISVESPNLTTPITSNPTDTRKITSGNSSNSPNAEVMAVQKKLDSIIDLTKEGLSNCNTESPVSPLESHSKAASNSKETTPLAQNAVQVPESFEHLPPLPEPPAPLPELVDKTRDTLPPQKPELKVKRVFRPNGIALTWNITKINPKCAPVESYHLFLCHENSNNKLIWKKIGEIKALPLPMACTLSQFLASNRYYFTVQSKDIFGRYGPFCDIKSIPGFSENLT
UniProt Q2TAZ0: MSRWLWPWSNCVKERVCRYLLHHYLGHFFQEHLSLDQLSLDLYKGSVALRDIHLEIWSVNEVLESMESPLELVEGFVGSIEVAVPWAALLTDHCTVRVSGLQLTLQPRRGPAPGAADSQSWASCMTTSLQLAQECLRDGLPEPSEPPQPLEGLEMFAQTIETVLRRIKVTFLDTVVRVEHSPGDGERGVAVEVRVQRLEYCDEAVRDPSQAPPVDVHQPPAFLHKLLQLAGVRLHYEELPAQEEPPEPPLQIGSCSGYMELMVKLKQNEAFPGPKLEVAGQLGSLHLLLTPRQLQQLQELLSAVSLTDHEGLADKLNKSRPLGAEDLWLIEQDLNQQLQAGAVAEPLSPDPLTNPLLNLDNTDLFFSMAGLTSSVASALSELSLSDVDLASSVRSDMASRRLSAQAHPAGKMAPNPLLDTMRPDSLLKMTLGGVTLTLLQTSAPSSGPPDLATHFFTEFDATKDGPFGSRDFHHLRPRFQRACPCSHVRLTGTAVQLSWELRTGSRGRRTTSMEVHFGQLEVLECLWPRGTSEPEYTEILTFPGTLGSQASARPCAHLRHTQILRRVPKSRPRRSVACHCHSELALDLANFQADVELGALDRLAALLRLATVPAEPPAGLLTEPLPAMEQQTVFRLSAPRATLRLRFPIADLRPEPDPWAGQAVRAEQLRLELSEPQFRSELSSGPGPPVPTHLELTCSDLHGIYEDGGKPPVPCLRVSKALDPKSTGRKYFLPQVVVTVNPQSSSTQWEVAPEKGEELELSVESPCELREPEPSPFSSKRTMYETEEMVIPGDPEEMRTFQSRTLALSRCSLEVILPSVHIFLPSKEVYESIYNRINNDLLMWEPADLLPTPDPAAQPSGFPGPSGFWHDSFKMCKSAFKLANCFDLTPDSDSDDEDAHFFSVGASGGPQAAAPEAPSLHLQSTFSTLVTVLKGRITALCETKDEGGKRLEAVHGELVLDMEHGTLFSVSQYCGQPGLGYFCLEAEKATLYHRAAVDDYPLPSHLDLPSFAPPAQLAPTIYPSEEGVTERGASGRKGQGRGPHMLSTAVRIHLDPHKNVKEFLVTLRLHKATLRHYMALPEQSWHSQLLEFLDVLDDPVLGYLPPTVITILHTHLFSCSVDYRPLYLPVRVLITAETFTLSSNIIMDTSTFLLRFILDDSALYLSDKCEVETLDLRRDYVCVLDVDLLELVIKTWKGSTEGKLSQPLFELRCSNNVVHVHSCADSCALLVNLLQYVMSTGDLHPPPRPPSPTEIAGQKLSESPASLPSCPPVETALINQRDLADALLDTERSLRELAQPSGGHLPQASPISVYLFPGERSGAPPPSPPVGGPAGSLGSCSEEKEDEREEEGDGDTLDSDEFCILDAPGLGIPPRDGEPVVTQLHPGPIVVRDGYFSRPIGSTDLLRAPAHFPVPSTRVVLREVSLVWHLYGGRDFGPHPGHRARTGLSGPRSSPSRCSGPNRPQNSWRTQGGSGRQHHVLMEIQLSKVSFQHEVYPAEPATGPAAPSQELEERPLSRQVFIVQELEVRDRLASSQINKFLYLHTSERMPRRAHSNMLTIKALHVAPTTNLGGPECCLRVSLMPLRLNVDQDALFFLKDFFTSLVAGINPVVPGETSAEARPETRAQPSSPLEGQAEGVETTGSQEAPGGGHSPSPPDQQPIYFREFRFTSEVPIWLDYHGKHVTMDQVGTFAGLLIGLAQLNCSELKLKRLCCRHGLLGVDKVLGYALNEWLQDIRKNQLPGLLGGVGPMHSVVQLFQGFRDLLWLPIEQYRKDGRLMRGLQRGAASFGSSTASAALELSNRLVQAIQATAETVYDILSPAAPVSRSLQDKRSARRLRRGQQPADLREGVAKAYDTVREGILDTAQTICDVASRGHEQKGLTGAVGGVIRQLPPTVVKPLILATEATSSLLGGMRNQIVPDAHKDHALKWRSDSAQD
UniProt Q9H1Y0: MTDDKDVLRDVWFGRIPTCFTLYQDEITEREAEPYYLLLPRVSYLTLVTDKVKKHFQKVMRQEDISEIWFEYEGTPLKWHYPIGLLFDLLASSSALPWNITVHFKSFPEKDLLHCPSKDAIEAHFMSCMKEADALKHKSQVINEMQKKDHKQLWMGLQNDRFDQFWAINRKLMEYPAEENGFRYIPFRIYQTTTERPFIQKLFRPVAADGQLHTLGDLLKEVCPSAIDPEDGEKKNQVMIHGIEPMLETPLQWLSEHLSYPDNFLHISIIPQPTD

Key:
Assay in all cases: log2 fold change, soluble protein after heating vs DMSO (PISA); higher = thermal stabilisation; K562 lysate, 10 uM; active = over 0.2 and 3.5 SD of the protein, either way, in both replicates (recomputed)
[1] = compound: NCC(=O)Nc1ccc(-n2nc(C(F)(F)F)cc2-c2ccc3c(ccc4ccccc43)c2)cc1
Procedure, shortened: (§1)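 A 30 min treatment with 10 μM compound was applied to crude K562 extract at 1 mg/mL protein in PBS pH 7.4 with 1 mM MgCl2. Heating for 3 min spanned 48°C-58°C, after which aliquots were pooled, adjusted to 0.5% NP-40 at 4°C and spun at 21,000xg for 90 min. TMTpro 16plex LC-MS/MS of the supernatant, with channel sums equalised, gave values recorded as log-two fold change in thermal stability against solvent controls, from duplicates.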

[2] = compound: O=C(CCCCCCC(=O)Nc1ccccc1)NO [vorinostat]
Procedure, shortened: as §1

[3] = compound: O=C(O)c1ccc2c(c1)nc(Nc1cccc(Cl)c1)c1ccncc12 [silmitasertib]
Procedure, shortened: as §1

[4] = compound: O=C1NC(=O)C(c2cnc3ccccn23)=C1c1cn2c3c(cc(F)cc13)CN(C(=O)N1CCCCC1)CC2
Procedure, shortened: as §1

[5] = compound: c1cn2cc(-c3ccc4cn[nH]c4c3)nc(Nc3ccc(N4CCOCC4)cc3)c2n1 [entospletinib]
Procedure, shortened: as §1

Measured: log2 fold change

AXIN1 (UniProt O15169)
inactive: [1] 0.014 | [2] -0.024 | [3] 0.04 | [4] 0.063 | [5] 0.034

ATRN (UniProt O75882)
inactive: [1] -0.129 | [2] 0.268 | [3] 0.028 | [4] -0.053 | [5] -0.068

ATP6V1G1 (UniProt O75348)
inactive: [1] 0.04 | [2] -0.096 | [3] 0.006 | [4] -0.014 | [5] 0.008

B2M (UniProt P61769)
inactive: [1] -0.051 | [2] 0.181 | [3] -0.032 | [4] 0.016 | [5] 0.054

ASDURF (UniProt L0R819)
inactive: [1] 0.012 | [2] 0.07 | [3] 0.012 | [4] -0.023 | [5] 0.028

ATP13A2 (UniProt Q9NQ11)
inactive: [1] -0.017 | [2] 0.141 | [3] 0.005 | [4] 0.007 | [5] -0.014

ATF7IP2 (UniProt Q5U623)
inactive: [1] 0.066 | [2] 0.027 | [3] 0.002 | [4] -0.048

ATG2A isoform 3 (UniProt Q2TAZ0)
inactive: [1] 0.005 | [2] -0.045 | [3] 0.095 | [4] 0.058 | [5] -0.001

ATG5 (UniProt Q9H1Y0)
inactive: [1] 0.007 | [2] 0.005 | [3] 0.005 | [4] 0.005 | [5] 0.025
